Data as given in publication PMC10163288.
The other results are listed elsewhere or left out.

B1: il2ra_site1_1z92_sap_12_mot_HHH_b1_00784_af2_000000189_0001_1_17_H_._ems_4hM_4652_0001_0000400029_0000001_0_0001_af2pred_0001_af2pred (protein)
chain: SSSSDLEEIVEKIVEEIVEELGLSEELEKALRKDARAAAENGFSPEAVRKALETNAEIANSSSSS
B2: il2ra_site1_3nfp_normal_mot_0eddeacbb14b769e73e254714f31e2f9_0001_af2_000000052_0001_37_51_H_._208e20f37e868f9baeee1912733167ef_0001_af2_0001_0000200005_0000001 … (protein)
chain: DEELEEELEELIKNNDPERLLEVLKKLAEKLGNPNEAARIIWEIARELGNSDVVYEVMRLDIEEQ
B3: il2ra_site1_2b5i_sap_20_mot_896a1d39e3b28640de5b7eb5baaf079b_0001_000000273_0001_37_51_H_._HEEHE_0493_0001_0000400033_0000001_0_0001_af2pred_dldesign_0_af2pred (protein)
chain: SSSSSSSLELFRRAEELIKAGKLDEAKKLAEELLREARARGNKTAARIAEKLIEECEEAKSSSSS
B4: il2ra_site2_2erj_sap_21_mot_HHH_b2_01818_000000011_0001_42_56_H_._HHH_b1_03429_0001_0000300033_0000001_0_0001 (protein)
chain: SSSSSSDVEEQVEELLEEAKRVEDPEEAAAIVNEAAAVAVRNDNDELLEEVRKIFTELASSSSSS
B5: il2ra_site1_1z92_normal_mot_HHH_b1_05862_af2_000000270_0001_22_38_H_._HHH_b1_01857_0001_0000100001_0000001_0 (protein)
chain: SSSSTAVEWALELVRAAARLGNEEQIEFLLRDVELLLELRNDPEVEEILREIRELLEELRSSSSS
B6: il2ra_site2_2erj_sap_16_mot_HHH_b1_00682_af2_000000112_0001_43_57_H_._HHH_b2_04454_af2_0001_0001100007_0000001_0_0001_af2pred_0001_af2pred_1_swapped (protein)
chain: SSSSSSDREEAEELLEEAKQIDDEEEAEKVLRRALRLAFHAGDEELAQEIFVLISELLSSSSSSS
B7: il2ra_site2_3nfp_sap_21_mot_HHH_b2_07213_000000002_0001_43_56_H_._HHH_b1_01357_af2_0001_0000200008_0000001_0_0001 (protein)
chain: SSSSDFEEYLEAVLRLLERAVREGNEEYVERLFEMIQLAVEDNNDPEALERLEELYERFRSSSSS
B8: il2ra_site2_2erj_sap_20_mot_64bd02d26d05ce9f1a62b616cea0b888_0001_af2_000000029_0001_36_49_H_._HHH_b2_06826_0001_0000300025_0000001_0_0001 (protein)
chain: SSSSSEAYEFAAEVSIEALELFKRGDPEEARRLLEEAEEYVRELGDERAAKYLEAALRDASSSSS
B9: il2ra_site2_3nfp_sap_23_mot_HHH_b2_02831_000000278_0001_1_18_H_._HHH_b1_00356_0001_0001200154_0000001_0_0001 (protein)
chain: SSSSSDIERVVKSALRFAEQVKEEGDEEIFRSAVEWARAVAVMNGNEELEELVEEFQREYSSSSS
B10: il2ra_site1_2b5i_sap_19_mot_07104d7dbe42e49ee5b1eb09eb0325d4_0001_1_000000237_0001_1_14_H_._c2c76b0c55ab846b919312a8a0542545_0001_0001_0000200016_0000001_0_0001 … (protein)
chain: SSSSDPEDEVYDLFHEALRLRRQGKKEEAKKVLEKALALAKELGNEKTVAEIQYFLERLKSSSSS
B11: il2ra_site2_3nfp_sap_23_mot_ems_3hM_2323_000000152_0001_1_19_H_._HHH_b1_01072_0001_0000200010_0000001_1_0001 (protein)
chain: SSSSRVEEYLRAVLALLKEALEEGDEEAARRMLEAVKLAAESNNDEEIEREVEKLEEILNSSSSS
B12: il2ra_site2_3nfp_sap_18_mot_HHH_b1_00399_af2_000000233_0001_42_56_H_._bf1826a50d40eacddbdd2daba850d2f6_0001_0001_0000700029_0000001_0_0001 (protein)
chain: DEELEEEAEEVIERAKEVAKHASPHARDVLEAAIKLLEEAVRNKDEEAIRLLLEAVREAVELLES
B13: il2ra_site1_1z92_normal_mot_HHH_b1_02362_af2_000000131_0001_1_17_H_._HHH_b2_03557_0001_0000100004_0000001_0_af2pred_0001_af2pred_1 (protein)
chain: SSSSSDDREASRIVAELIRKFKLSLEQMQELLKAALEALERGLSEEEIEELLERVAEELSSSSSS
B14: il2ra_site2_2erj_normal_mot_HHH_b1_02757_000000121_0001_41_57_H_._HHH_b2_06753_0001_0000100007_0000001_0_af2pred_0001_1_af2pred_swapped (protein)
chain: SSSSSSDIEEEVKELLEEAKRISDKREALRVLQEASELASKLNDEELLELIDEVLQELSSSSSSS
B15: il2ra_site2_2erj_sap_34_mot_c2bf78bdce995293a161f7082e24b401_0001_000000177_0001_37_51_H_._HHH_b2_02272_af2_0001_0000200009_0000001_0_0001 (protein)
chain: SSSSSEELHRLYELAVRVMRLIWEGDEEEAQELLEELEELAEKAKSENVKEIIKWLKERINSSSS
B16: il2ra_site1_3nfp_normal_mot_HHH_b2_01814_000000033_0001_1_16_H_._HHH_b1_05657_0001_0000200020_0000001_0_af2pred_0001_af2pred_1 (protein)
chain: SSSSTEVNKRAQELIKRIQELLHEGNPEEAEELLEELEELARELGDEVLKLLVERLRELLSSSSS
B17: il2ra_site1_3nfp_normal_mot_HHH_b1_01335_af2_000000258_0001_39_53_H_._HHH_b2_04619_0001_0000200009_0000001_0 (protein)
chain: SSSSSEDEEEVRELLEEAERIEDVREAARVLREAYRVAAETRNLELSQLIYKVMRELAKRSSSSS
B18: il2ra_site2_3nfp_sap_21_mot_HHH_b1_04050_af2_000000227_0001_39_53_H_._HHH_b1_08095_af2_0001_0000200006_0000001_0_0001 (protein)
chain: DAALRLAELVRKLGDWKLLALLYAAIAKLYRKDPEEALRVLEELVELLEEGNDEEAERLAEEVRK
B19: il2ra_site2_3nfp_normal_mot_HHH_b1_05918_af2_000000127_0001_23_40_H_._HHH_b1_07797_0001_0000400047_0000001_0 (protein)
chain: SSSSSEAEEYLRAALLLAELALREGDEENARRSLELAIQLAEHKGNPELLEELEELLEEINSSSS
B20: il2ra_site1_2b5i_sap_10_mot_HHH_b1_06258_af2_000000112_0001_42_56_H_._HHH_b2_08033_af2_0001_0000100003_0000001_0_0001 (protein)
chain: SSSDLQELNRIAAEIVDELAEEFGLDAEQIRLLTRLAVELVWRGVSPEEIEEELRKLAEELSSSS
B21: il2ra_site2_2erj_sap_18_mot_HHH_b1_07609_af2_000000145_0001_21_36_H_._HHH_b1_06048_0001_0000200020_0000001_0_0001 (protein)
chain: SSSSDEELHELFELANELLRLLTEGDEERIEELREELEKLAEEAGSPALVRMVREAVRANLSSSS
B22: il2ra_site1_3nfp_sap_22_mot_HHH_b2_05674_000000170_0001_23_39_H_._HHH_b2_06768_0001_0000200010_0000001_0_0001_af2pred_0001_af2pred (protein)
chain: SSSSSDEEYEERIRELLERAKHVDPREAAKLFKEALKIAAELGDPELKRLIAEVLKKLAESSSSS
B23: il2ra_site1_3nfp_normal_mot_1cd86ef9f1587ae5d14d35bbbd8e7f1d_0001_1_000000087_0001_34_49_H_._HHH_b1_05184_af2_0001_0000200007_0000001_0_af2pred_0001_1_af2pred_s … (protein)
chain: SSSSDEEAEELLEEIRKQLEELLKRGNPREASKLAEEAYEELVRLGNPELAEELMRFAHKLSSSS
B24: il2ra_site2_2erj_sap_15_mot_44d7d87cef3b3f1636c8b2572508b1bf_0001_1_af2_000000043_0001_37_65_H_._HHH_b1_00092_0001_0000200007_0000001_0_0001 (protein)
chain: SSSSDEVAKEVNELVRRAVEAAQNGNPEEAEELLEEALRVAEEGNNPELAEAVELMIKFLSSSSS

Molecular target: il2ra, P01589
Assay: yeast display titration

| Binder | apparent Kd |
| --- | --- |
| B1 | inactive: no binding seen |
| B2 | inactive: no binding seen |
| B3 | inactive: no binding seen |
| B4 | inactive: no binding seen |
| B5 | inactive: no binding seen |
| B6 | inactive: no binding seen |
| B7 | inactive: no binding seen |
| B8 | inactive: no binding seen |
| B9 | inactive: no binding seen |
| B10 | inactive: no binding seen |
| B11 | inactive: no binding seen |
| B12 | inactive: no binding seen |
| B13 | inactive: > 1490 nM |
| B14 | inactive: no binding seen |
| B15 | inactive: no binding seen |
| B16 | inactive: no binding seen |
| B17 | inactive: no binding seen |
| B18 | inactive: no binding seen |
| B19 | inactive: no binding seen |
| B20 | inactive: no binding seen |
| B21 | inactive: no binding seen |
| B22 | inactive: no binding seen |
| B23 | inactive: no binding seen |
| B24 | inactive: no binding seen |

Random excerpt: two entries already listed, in no set order.

| Binder | apparent Kd |
| --- | --- |
| B22 | inactive: no binding seen |
| B5 | inactive: no binding seen |
